Here are results for six molecules from article PMC9908615.

The chains behind the UniProt entries cited, without tags or fusion partners. Where a name states a change or a piece, a line headed by the entry shows the natural chain unless it says otherwise.
UniProt Q7Z494: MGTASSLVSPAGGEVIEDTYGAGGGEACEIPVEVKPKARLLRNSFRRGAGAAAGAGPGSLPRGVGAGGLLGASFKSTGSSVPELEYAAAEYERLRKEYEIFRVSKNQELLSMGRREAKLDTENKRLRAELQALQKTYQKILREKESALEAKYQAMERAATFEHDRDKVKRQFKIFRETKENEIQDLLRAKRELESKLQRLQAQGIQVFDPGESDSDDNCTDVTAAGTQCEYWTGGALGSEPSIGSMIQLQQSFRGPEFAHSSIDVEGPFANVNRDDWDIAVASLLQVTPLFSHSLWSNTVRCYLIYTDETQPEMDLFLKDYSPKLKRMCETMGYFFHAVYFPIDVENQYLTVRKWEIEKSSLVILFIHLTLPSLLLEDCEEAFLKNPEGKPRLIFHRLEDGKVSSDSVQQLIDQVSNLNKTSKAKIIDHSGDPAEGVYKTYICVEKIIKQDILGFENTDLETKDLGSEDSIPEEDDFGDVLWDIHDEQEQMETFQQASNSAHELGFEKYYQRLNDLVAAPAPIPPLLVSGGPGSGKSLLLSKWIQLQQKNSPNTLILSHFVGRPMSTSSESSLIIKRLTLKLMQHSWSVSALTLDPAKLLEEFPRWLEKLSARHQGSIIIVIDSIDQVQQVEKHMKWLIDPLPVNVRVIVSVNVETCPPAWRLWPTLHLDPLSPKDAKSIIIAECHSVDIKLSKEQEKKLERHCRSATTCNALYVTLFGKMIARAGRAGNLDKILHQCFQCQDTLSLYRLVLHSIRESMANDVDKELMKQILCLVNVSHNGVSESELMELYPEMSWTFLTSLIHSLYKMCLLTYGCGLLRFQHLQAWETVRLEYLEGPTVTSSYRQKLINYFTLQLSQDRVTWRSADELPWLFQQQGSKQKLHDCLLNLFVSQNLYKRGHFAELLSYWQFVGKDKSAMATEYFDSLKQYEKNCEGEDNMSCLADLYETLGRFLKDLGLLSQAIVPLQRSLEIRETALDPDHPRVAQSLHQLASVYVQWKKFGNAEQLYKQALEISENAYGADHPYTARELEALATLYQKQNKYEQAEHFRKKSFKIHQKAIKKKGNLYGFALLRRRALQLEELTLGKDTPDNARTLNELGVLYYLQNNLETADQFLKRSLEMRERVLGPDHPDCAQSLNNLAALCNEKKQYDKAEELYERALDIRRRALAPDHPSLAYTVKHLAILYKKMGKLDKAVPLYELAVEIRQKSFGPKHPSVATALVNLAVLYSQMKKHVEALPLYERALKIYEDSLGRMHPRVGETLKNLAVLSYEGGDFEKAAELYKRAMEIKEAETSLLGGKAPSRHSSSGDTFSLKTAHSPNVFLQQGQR

B1: EPN3 (protein, UniProt Q91W69 1-636)
chain: MTTSALRRQVKNIVHNYSEAEIKVREATSNDPWGPPSSLMSEIADLTFNTVAFAEVMGMVWRRLNDSGKNWRHVYKALTLLDYLLKTGSERVAHQCRENLYTIQTLKDFQYIDRDGKDQGVNVREKVKQVMALLKDEERLRQERTHALKTKERMALEGMGIGSGQLGYSRRSRGSPSSYTSASSSPRYASDLEQARPQTSGEEELQLQLALAMSREEAERPVPPASHRDEDLQLQLALSLSRQEHEKGVRSWKGDDSPVANGAEPAGQRRQRDREPEREERKEEEKLKTSQSSILDLADIFAPAPALPSTHCSADPWDIPGLRPNTEPSGSSWGPSADPWSPVPSGNALSRSQPWDLLPTLSSSEPWGRTPVLPSGPPIADPWAPSSPTRKLPSTGADPWGASMETSDTSALGGASPFDPFAKPLESTEPKESRDSAQALPTGKSPSTVELDPFGDSSPSCKQNGMKEPEALDLGVLGEALPQQPGKEARPCRTPESFLGPSASSLVNLDSLVKAPLAARTRNPFLTGLGVPSPTNPFGAGDQGRPTLNQMRTGSPALGLPPGGPVGAPVGSMTYSASLPLPLSSVPVGATLPASVSVFPQAGAFAPPPASLPQPLLPTSGPMGPLPPQAGTNPFL
B2: OFD1 (protein, UniProt Q80Z25 1-1017)
chain: MAQSNMPHKSDVLSQDELRKKLYQTFKDRGVLDTLQTQLRNQLIHELMHPVLSGEVKPPSISVEGSALLIGASNSLVADHLQRCGYEYSLSVFFPESGLAKEKIFTMQDLLQLIRINPSSSLYKSLISGFDKENKKGFLMSFLKELAEYYQAKESCDAETQTSTTFPSQVSLAEKFQLIDAQFADGFPHRSKLESLETKLNEYKKEVQHQLQVEMCHKLKYFREAEITKVKMEERRKYEKELAEFQNEFERTCQAKNEALISQEKNSLERIKKHREMESKEIYAQRQLLLNDIALLRGREAELKERIETFELTQKLQEEKIKSEAEALERREQNLKNIEDTYDQKLKTELLKYQLELKDDYITRTNKLLEEERKNKEKTIHLQEELTVINSKKEELSKSVKHMKEVELELESVKAQFLAISKQNHLLNEKVREMSDYSQLKEEKVELQAQNKLLKLQLEETRNENLRLLDRITQPPPELVIFQKELQKTEKAMELEHKDFETHRQALEKQLQSEIENSAQLRTQIAEYDASVKRLTVQVAELKSQLKQTQIALENEVYRNPKHSLIHSLSGLLLSGKMAPHSEDKSGDFLNVPLEQNKVIAGAVMSRVPPYVNTATEASSPESDFEFIASSTKAKVRELEQEAERLEKAFRTYYQRATQNPSTSPQPAKSPPSVNSVAALRSIASSSMDRPVSAEDRVVSEQPLGDMLKEEMSDMSKAFMGSVVSRPRRTSSSTRLSSTPHPKSRRSLDNEMYLEGLGRLHMTSSSPLLDRVSASPAASPSPCPERTAQASPVPSRHSFSGLPEQNACLYQRQTETQDKSELSNVDKQSLKDEKFEPPFRWNKTEQFEAEGLHPAGDMPGIDFAVATQSSRLISYDYPSAVQSQTGEQDEQELWELHMKERRQREEQRHNERQEALERERRELGKLEQERRMIEESLKMEMEEELEKSVQDQKDKSAHCENTLEKYMKIIQQRQEESNADKSSKKSGKECSLVDMMMPSDKDESSPGFSHEEPDDMW
B3: EPS15L1 (protein, UniProt Q60902 1-907)
chain: MAAPLVPLSQQIPGGNPLYESYYKQVDPAYTGRVGASEAALFLKKSGLSDIILGKIWDLADPEGKGFLDKQGFYVALRLVACAQSGHEVTLSSLSLTMPPPKFHDTSSPLMATQSSAETHWAVRVEEKAKFDGIFESLLPVNGLLSGDKVKPVLMNSKLPLDVLGRVWDLSDIDKDGHLDRDEFAVAMHLVYRALEKEPVPSILPPPLIPPSKRKKTVFAGAVPVLPASPPPKDSLRSTPSHGSVSSLNSTGSLSPKHSVKQPPVAWVVPVADKMRFDEIFLKTDLDLDGYVSGQEVKEIFMHSGLTQNLLAHIWALADTRQTGKLSKEQFALAMYFIQQKVSKGIDPPQVLSPDMVPPSERGTPIPDSSSTLASGEFTGVKELDDISQEIAQLQREKYSLEQDIREKEEAIRQKTSEVQELQNDLDRETSSLQELEAQKQDAQDRLDEMDQQKAKLRDMLSDVRQKCQDETQTISSLKTQIQSQESDLKSQEDDLNRAKSELNRLQQEETQLEQSIQAGRAQLETILRSLKCTQDDINQARSKLSQLQESHLEAHRSLEQYDQVPDGVSGTSLPDLATLNEGILLAERGGFGAMDDPFKNKALLFSNNSQELHPDPFQAEDPFKSDPFKGADPFKGDPFQSDPFSEQQTAATDPFGGDPFKESDPFHSSSSDDFFKKQTKNDPFTSDPFTKNPSLPSKLDPFESSDPFSSSSISSKGSDPFGTLDPFGSSSFSSAEGFADFSQMSKPPPSGPFSSSLGGTGFSDDPFKSKQDTPALPPKKPAPPRPKPPSGQSTPVSQLGSSDFPESPDPFQPLGADSGDPFQNKKGFGDPFSGKDPFAPSSSAKPPKTSSSGFADFTSFGNEEQQLAWAKRESEKAEQERLARLRRQEQEDLELAIALSKADMPA
B4: TAB1 (protein, UniProt Q8CF89 1-502)
chain: MAAQRRSLLQSEQQPSWTDDLPLCHLSGVGSASNRSYSADGKGTESHPPEDNWLKFRSENNCFLYGVFNGYDGNRVTNFVAQRLSAELLLGQLNTEHTEADVRRVLLQAFDVVERSFLESIDDALAEKASLQSQLPEGVPQHQLPPQYQKILERLKALEREISGGAMAVVAVLLNSKLYVANVGTNRALLCKSTVDGLQVTQLNMDHTTENEDELFRLSQLGLDAGKIKQMGVICGQESTRRIGDYKVKYGYTDIDLLSAAKSKPIIAEPEIHGAQPLDGVTGFLVLMSEGLYKALEAAHGPGQANQEIAAMIDTEFAKQTSLDAVAQAVVDRVKRIHSDTFASGGERAKFCPRHEDMTLLVRNFGYPLGEMSQPTPTPAPGGRVYPVSVPYSSAQSTSKTSVTLSLVMPSQGQMVNGSHSASTLDEATPTLTNQSPTLTLQSTNTHTQSSSSSSDGGLFRSRPAHSLPPGEDGRVEPYVDFAEFYRLWSVDHGEQSVMTAP
B5: PICALM (protein, UniProt Q7M6Y3 1-660)
chain: MSGQSLTDRITAAQHSVTGSAVSKTVCKATTHEIMGPKKKHLDYLIQCTNEMNVNIPQLADSLFERTTNSSWVVVFKSLITTHHLMVYGNERFIQYLASRNTLFNLSNFLDKSGLQGYDMSTFIRRYSRYLNEKAVSYRQVAFDFTKVKRGADGVMRTMNTEKLLKTVPIIQNQMDALLDFNVNSNELTNGVINAAFMLLFKDAIRLFAAYNEGIINLLEKYFDMKKNQCKEGLDIYKKFLTRMTRISEFLKVAEQVGIDRGDIPDLSQAPSSLLDALEQHLASLEGKKIKDSTAASRATTLSNAVSSLASTGLSLTKVDEREKQAALEEEQARLKALKEQRLKELAKKPHTSLTTAASPVSTSAGGIMTAPAIDIFSTPSSSNSTSKLPNDLLDLQQPTFHPSVHAMSAAPQGASTWGDPFSATLDAVEDAIPSLNPFLTKSSGDVHLPIASDVSTFTTRTPTHEMFVGFSPSPVAQPHSSAGLNVDFESVFGNKSTNVAVDSGGFDELGGLLKPTVASQNQSLPVAKLPPNKLVSDDLDSSLANLVGNLGIGNGTTKNDVSWSQPGEKKLTGGSNWQPKVAPTTAWSAATMNGMHFPQYAPPVMAYPATTPTGMIGYGIPPQMGSVPVMTQPTLIYSQPVMRPPNPFGPVSGAQIQFM
B6: TOM1L2 (protein, UniProt Q5SRX1 1-507)
chain: MEFLLGNPFSTPVGQCLEKATDGSLQSEDWTLNMEICDIINETEEGPKDAIRALKKRLSGNRNYREVMLALTVLETCVKNCGHRFHLLVANRDFIDSVLVKIISPKNNPPTIVQDKVLALIQAWADAFRSSPDLTGVVHIYEELKRRGIEFPMADLDALSPIHTPQRSVPEMDPAATIPRSQTQPRTTAGTYSSPPPASYSTLQAPALSVTGPITANSEQIARLRSELDIVRGNTKVMSEMLTEMVPGQEDSSDLELLQELNRTCRAMQHRIVELISRVSNEEVTEELLHVNDDLNNVFLRYERFERYRSGRSVQNASNGVLSEVTEDNLIDLGPGSPAVVSPMVGSTAPPSSLSSQLAGLDLGTESVSGTLSSLQQCKPQDGFDMFAQTRGNSLAEQRKTVTYEDPQAVGGLASALDNRKQNSEMIPVAQPSVMDDIEVWLRTDLKGDDLEEGVTSEEFDKFLEERAKAAETVPDLPSPPTEAPAPASNTSTRKKPERSDDALFAL

No constants are given. Whether binding was seen depends on the method and setting. Binding seen in cells or lysates may run through a third protein. These calls come from enrichment with a bait or labelling near it, and not all partners need be listed.

The target of the experiment is NPHP3-BioID2-RAD23B (aa185-409) (human) (UniProt Q7Z494). Put plainly: proximity labelling; NPHP3-BioID2-RAD23B (aa185-409) stably expressed in IMCD3 Flp-In cells, starvation medium 48 h, 10 uM biotin for the last 24 h; RIPA lysis, StrepTactin Superflow beads 3 h at 4°C, on-bead trypsin digestion, label-free MS; enrichment against the NPHP3-BioID2 control line; 6 replicates per cell line.
With B1, the binding result is on record as “binds”.

Regarding B2, the binding entry is listed as “binds”.

B3: the binding entry is “binds”.

As to B4, the binding entry is given as “binds”.

Consider B5, for which the binding entry is “binds”.

With B6, the binding result is given as “binds”.
